Data as given in PubChem BioAssay AID720505 (Drosophila RNAi Screening Center, 2013).

Aim: 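Genes needed for store-operated calcium entry in fly cells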 (primary screen)
System: Drosophila S2R+ cells
Reagents: long dsRNA against Drosophila genes
Treatment: thapsigargin (2 µM) in calcium-free buffer to empty internal stores, then 2 mM calcium added back
Measured: 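Fluo-4 signal in 384-well plates read on a FLIPR after thapsigargin (2 µM, calcium-free) store depletion and 2 mM calcium add-back; unnormalised mean endpoint per well; screen run twice, selected wells retested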
Scale: calcium signal and retest calcium signal: higher = more calcium entry after store depletion
Rule for the call: 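Knock-downs counted as hits when calcium entry dropped relative to STIM1 positive and Rho1 negative controls present on each plate; roughly 1500 genes called, with reductions of differing size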
Calls: active = called as lowering calcium entry; inactive = not called
The screen tested about 20,000 reagents; below is an unselected part of those that have a named target and a result. In the full data, about 2,100 (10%) are marked active. 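Raw plate signals without normalisation; calls rest on control-based scores that were not deposited; replicate 2 separates called from uncalled poorly.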 Reagents against one gene are numbered here. A plus sign joins genes that one reagent is predicted to hit. Reagent sequences are not shown. The record does not give: the amount of reagent, the time to read-out.

Jhbp13
- calcium signal, replicate 1: 114
- calcium signal, replicate 2: 90
- outcome: inactive

inaE #1
- calcium signal, replicate 1: 73
- calcium signal, replicate 2: 88.1
- outcome: active

inaE #2
- calcium signal, replicate 1: 90.9
- calcium signal, replicate 2: 58.5
- outcome: active

inaE #3
- calcium signal, replicate 1: 75.4
- calcium signal, replicate 2: 80
- retest calcium signal, replicate 1: 84.6
- retest calcium signal, replicate 2: 95.1
- outcome: inactive

inaE #4
- calcium signal, replicate 1: 78.1
- calcium signal, replicate 2: 86.5
- outcome: inactive

Mbs #1
- calcium signal, replicate 1: 118
- calcium signal, replicate 2: 74.2
- outcome: inactive

Mbs #2
- calcium signal, replicate 1: 111
- calcium signal, replicate 2: 160
- retest calcium signal, replicate 1: 94.8
- retest calcium signal, replicate 2: 95.3
- outcome: inactive

tum
- calcium signal, replicate 1: 68.6
- calcium signal, replicate 2: 162
- outcome: inactive

PyK
- calcium signal, replicate 1: 191
- calcium signal, replicate 2: 165
- outcome: inactive

CG4259
- calcium signal, replicate 1: 97.1
- calcium signal, replicate 2: 157
- outcome: inactive

Khc-73
- calcium signal, replicate 1: 175
- calcium signal, replicate 2: 125
- outcome: inactive

CG12643
- calcium signal, replicate 1: 62.7
- calcium signal, replicate 2: 143
- outcome: active

cad #1
- calcium signal, replicate 1: 51.3
- calcium signal, replicate 2: 85.5
- outcome: active

cad #2
- calcium signal, replicate 1: 112
- calcium signal, replicate 2: 150
- outcome: inactive

CG33061 #1
- calcium signal, replicate 1: 128
- calcium signal, replicate 2: 67.2
- outcome: active

CG33061 #2
- calcium signal, replicate 1: 102
- calcium signal, replicate 2: 160
- outcome: inactive

Acp95EF + Spase22-23
- calcium signal, replicate 1: 178
- calcium signal, replicate 2: 136
- outcome: inactive

GstS1
- calcium signal, replicate 1: 114
- calcium signal, replicate 2: 123
- outcome: inactive

Mcr
- calcium signal, replicate 1: 146
- calcium signal, replicate 2: 238
- outcome: inactive

CG11164
- calcium signal, replicate 1: 56.9
- calcium signal, replicate 2: 121
- outcome: active

QIL1
- calcium signal, replicate 1: 59.7
- calcium signal, replicate 2: 132
- outcome: inactive

MtnA
- calcium signal, replicate 1: 127
- calcium signal, replicate 2: 77.6
- outcome: inactive

Ravus
- calcium signal, replicate 1: 82.9
- calcium signal, replicate 2: 161
- outcome: inactive

Ctr1B + Poxm
- calcium signal, replicate 1: 120
- calcium signal, replicate 2: 106
- outcome: inactive

CG32163 #1
- calcium signal, replicate 1: 7911
- calcium signal, replicate 2: 112
- outcome: inactive

CG32163 #2
- calcium signal, replicate 1: 83.1
- calcium signal, replicate 2: 149
- outcome: inactive

Sf3a1
- calcium signal, replicate 1: 120
- calcium signal, replicate 2: 116
- outcome: active

kl-5 (retired record) #1
- calcium signal, replicate 1: 65.6
- calcium signal, replicate 2: 176
- outcome: active

kl-5 (retired record) #2
- calcium signal, replicate 1: 56.4
- calcium signal, replicate 2: 9608
- outcome: active

kl-5 (retired record) #3
- calcium signal, replicate 1: 106
- calcium signal, replicate 2: 8840
- outcome: inactive

kl-5 (retired record) #4
- calcium signal, replicate 1: 66.2
- calcium signal, replicate 2: 98.1
- outcome: inactive

Not a retest: an excerpt of the list.
Acp95EF + Spase22-23
- calcium signal, replicate 1: 178
- calcium signal, replicate 2: 136
- outcome: inactive

GstS1
- calcium signal, replicate 1: 114
- calcium signal, replicate 2: 123
- outcome: inactive

Mcr
- calcium signal, replicate 1: 146
- calcium signal, replicate 2: 238
- outcome: inactive

CG11164
- calcium signal, replicate 1: 56.9
- calcium signal, replicate 2: 121
- outcome: active
